Data: publication PMC11671585, “Deciphering the molecular basis of lipoprotein recognition and transport by LolCDE” (Signal Transduction and Targeted Therapy, 2024)
Where a chain is given by its changes, count along the chain named. No constants are given. Whether binding was seen depends on the method and setting. Binding seen in cells or lysates may run through a third protein. Some entries that bind do so weakly or less than the wild type.

Sequences of proteins named here, by UniProt entry; tags and fusion partners are left off. Residues count along the entry.
UniProt P0A937, residues 20-113: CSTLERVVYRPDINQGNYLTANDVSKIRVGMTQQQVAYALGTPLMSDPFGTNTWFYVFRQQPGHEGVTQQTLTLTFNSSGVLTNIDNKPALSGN

Columns and labels:
Test in all cases: pull-down; BamE-Myc co-expressed with wild-type or mutant LolCDE (His8 on LolD) from pTRC99a-lolCDE-BamE; complex purified by nickel affinity and SEC; bound BamE detected by western blot
[1] = target: T1, LolCDE complex (wild type), E. coli K-12 (E. coli K-12) (UniProt P0ADC3+P75957+P75958)
T1 sequence 1: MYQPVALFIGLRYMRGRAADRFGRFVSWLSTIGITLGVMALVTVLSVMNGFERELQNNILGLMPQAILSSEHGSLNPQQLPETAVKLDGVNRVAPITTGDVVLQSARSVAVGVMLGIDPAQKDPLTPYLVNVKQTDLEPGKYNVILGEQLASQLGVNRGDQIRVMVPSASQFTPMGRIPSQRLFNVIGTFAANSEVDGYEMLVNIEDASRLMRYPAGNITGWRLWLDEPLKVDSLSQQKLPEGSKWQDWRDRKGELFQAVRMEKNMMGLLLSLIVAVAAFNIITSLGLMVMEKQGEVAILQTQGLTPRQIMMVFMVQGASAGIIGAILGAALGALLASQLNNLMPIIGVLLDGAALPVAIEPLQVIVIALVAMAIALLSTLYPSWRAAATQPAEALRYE
T1 sequence 2: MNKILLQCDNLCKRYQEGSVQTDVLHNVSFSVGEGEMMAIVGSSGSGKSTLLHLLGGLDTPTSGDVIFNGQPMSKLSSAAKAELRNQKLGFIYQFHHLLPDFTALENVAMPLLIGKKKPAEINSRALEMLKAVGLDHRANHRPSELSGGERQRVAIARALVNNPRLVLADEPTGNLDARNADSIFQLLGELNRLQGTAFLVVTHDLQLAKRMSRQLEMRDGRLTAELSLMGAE
T1 sequence 3: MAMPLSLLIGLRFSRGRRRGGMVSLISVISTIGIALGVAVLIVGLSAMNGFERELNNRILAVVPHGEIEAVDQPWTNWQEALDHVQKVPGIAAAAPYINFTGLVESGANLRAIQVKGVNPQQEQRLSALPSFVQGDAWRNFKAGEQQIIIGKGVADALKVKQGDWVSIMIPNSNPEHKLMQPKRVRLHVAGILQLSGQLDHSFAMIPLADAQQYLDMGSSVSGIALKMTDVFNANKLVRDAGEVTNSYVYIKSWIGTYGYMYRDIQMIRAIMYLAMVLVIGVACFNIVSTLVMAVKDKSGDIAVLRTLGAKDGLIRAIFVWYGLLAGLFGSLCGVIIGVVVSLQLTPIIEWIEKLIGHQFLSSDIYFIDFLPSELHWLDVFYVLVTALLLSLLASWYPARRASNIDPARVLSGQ

[2] = target: T2, LolCDE complex with H65D in LolE (E. coli K-12) (UniProt P0ADC3+P75957+P75958)
T2 sequence 1: T1 sequence 1
T2 sequence 2: T1 sequence 2
T2 sequence 3: T1 sequence 3 with H65D

[3] = target: T3, LolCDE complex with L60D in LolE (E. coli K-12) (UniProt P0ADC3+P75957+P75958)
T3 sequence 1: T1 sequence 1
T3 sequence 2: T1 sequence 2
T3 sequence 3: T1 sequence 3 with L60D

[4] = target: T4, LolCDE complex with LolE^I251D (E. coli K-12) (UniProt P0ADC3+P75957+P75958)
T4 sequence 1: T1 sequence 1
T4 sequence 2: T1 sequence 2
T4 sequence 3: T1 sequence 3 with I251D

[5] = target: T5, LolCDE complex with LolE^Y258D (E. coli K-12) (UniProt P0ADC3+P75957+P75958)
T5 sequence 1: T1 sequence 1
T5 sequence 2: T1 sequence 2
T5 sequence 3: T1 sequence 3 with Y258D

[6] = target: T6, LolCDE complex with V63D in LolE (E. coli K-12) (UniProt P0ADC3+P75957+P75958)
T6 sequence 1: T1 sequence 1
T6 sequence 2: T1 sequence 2
T6 sequence 3: T1 sequence 3 with V63D

binding [1]: binds
binding [2]: binds
binding [3]: binds
binding [4]: binds
binding [5]: binds
binding [6]: binds
Substance: BamE, outer membrane lipoprotein, with C-terminal Myc tag (from UniProt P0A937 20-113)
